At least one compound was matched to its structure with a doubt left.
Assays:
[1] = tested on: heterotopic ossification from transplanted FOP patient-derived mesenchymal stem cell-like cells and C3H10T1/2 cells expressing human activin-A; test: Mice model for human heterotopic ossification using the FOP patient-derived cells (microCT heterotopic bone volume); type: in vivo, immunodeficient mice (NOD/SCID mice); conditions: six weeks after transplantation
[2] = tested on: mesenchymal stem cell-like cells derived from iPS cells established from a FOP patient (ACVR1 R206H); test: Activin-A-induced chondrogenic differentiation of FOP patient-derived cells (sulfated glycosaminoglycan quantification); type: cell-based; conditions: 100 ng/mL human activin-A, compound 0.01 to 100 nM, six days, P<0.0001 at 0.1-100 nM rapamycin, 1-100 nM everolimus or temsirolimus vs activin-A only
Experimental: According to the method of Yamanaka et. al., (Cell, 2007, 131 (5), […]), iPS cells derived from a FOP patient (referred to as “patient-derived iPS cells” in some cases hereafter) were established. […] This mutation is a mutation that replaces the 206th arginine residue into a histidine residue in the amino acid sequence of ACVR1 (the amino acid sequence as set forth in SEQ ID NO:2). […]
These mesenchymal stem cell-like cells were cultured under a condition of a chondrogenic induction medium according to the method of Umeda (Sci. Rep, 2012, 2, 455) for six days and differentiated into chondrocytes. […] Also, compounds for which their inhibitory effect against the chondrogenic differentiation were to be evaluated (concentrations of from 0.01 to 100 nM) were added simultaneously with human activin-A (referred to as “activin-A” in some cases hereafter). […] The degree of differentiation into chondrocytes was measured with a quantification kit for sulfated glycosaminoglycan (manufactured by Biocolor Inc.; trade name, Blyscan Glycosaminoglycan Assay Kit). […]

CO[C@H]1C[C@@H]2CC[C@@H](C)[C@@](O)(O2)C(=O)C(=O)N2CCCC[C@H]2C(=O)O[C@H]([C@H](C)C[C@@H]2CC[C@@H](O)[C@H](OC)C2)CC(=O)[C@H](C)/C=C(\C)[C@@H](O)[C@@H](OC)C(=O)[C@H](C)C[C@H](C)/C=C/C=C/C=C/1C [rapamycin]
heterotopic ossification in the right gastrocnemius muscle (heterotopic bone volume) ([1]; intraperitoneal 5 mg/kg five times a week, P<0.01 vs non-administered group): significantly suppressed
heterotopic ossification in the right gastrocnemius muscle (heterotopic bone volume) ([1]; oral 3, 10, or 30 mg/kg five times a week, P<0.0001 vs non-administered group): significantly suppressed
chondrogenic differentiation (amount of sulfated glycosaminoglycan) [2]: suppressed the chondrogenic differentiation
